Experimental data published in patent US8853214B2, “Pyridazine compounds for controlling invertebrate pests” (BASF SE, priority 2010, dated 2014).
Some of these results come from one statement about several compounds together.

Legend:
Format in all cases: in vivo
Aphis craccivora = assay: Cowpea aphid (Aphis craccivora) spray test on potted cowpea plants; conditions: 500 ppm; in comparison with untreated controls; population reduction assessed after 24, 72 and 120 hours
Description: II.1 Cowpea Aphid (Aphis craccivora)
The active compounds were formulated in 50:50 (vol:vol) acetone:water. The test solution was prepared at the day of use.
Potted cowpea plants colonized with 100-150 aphids of various stages were sprayed after the pest population had been recorded. Population reduction was assessed after 24, 72, and 120 hours.

Myzus persicae = assay: Green peach aphid (Myzus persicae) systemic test via artificial diet; conditions: 2500 ppm, in comparison with untreated controls, 3 days
Aphis gossypii = assay: Cotton aphid (Aphis gossypii, mixed life stages) spray test on cotton plants; conditions: 500 ppm; in comparison with untreated controls; determined after 5 days
Megoura Viciae = assay: Vetch aphid (Megoura viciae) bean leaf disk test; conditions: concentration of the test solution 2500 mg/l; 6 days
Bemisia Argentifolii = assay: Silverleaf whitefly (Bemisia argentifolii, adult) test on sprayed cotton plants; conditions: 500 ppm; in comparison with untreated controls; 3 days after treatment

SMILES | mortality (Aphis craccivora) | further results
COCCn1ccc(C(=O)N(C)c2ccnnc2)c1C [I.33] | at least 75% | mortality (Myzus persicae): at least 75%
Cc1cc(C(=O)Nc2ccnnc2)c(C)o1 [I.20] | at least 75% | 
CN(C(=O)c1ccc(Cl)s1)c1ccnnc1 [II.11] | at least 75% | 
O=C(Nc1ccnnc1)c1ccsc1 [I.14] | at least 75% | mortality (Aphis gossypii): at least 75%
Cc1occc1C(=O)N(C)c1ccnnc1 [I.10] | at least 75% | 
CN(C(=O)c1cscc1C(F)(F)F)c1ccnnc1 [I.1] | at least 75% | mortality (Myzus persicae): at least 75%
Cc1c(C(=O)N(C)c2ccnnc2)ccn1CC(C)C [I.37] | at least 75% | 
O=C(Nc1ccnnc1)c1ccc([N+](=O)[O-])s1 [II.29] | at least 75% | 
O=C(Nc1ccnnc1)c1ccsc1Cl [I.17] | at least 75% | mortality (Aphis gossypii): at least 75%
Cn1cccc1C(=O)Nc1ccnnc1 [II.6] | at least 75% | 
O=C(Nc1ccnnc1)c1cscc1C(F)(F)F [I.2] | at least 75% | mortality (Megoura Viciae): at least 75%
Cc1cc(C(=O)N(C)c2ccnnc2)c(C(F)(F)F)o1 [I.11] | at least 75% | mortality (Aphis gossypii): at least 75%
O=C(Nc1ccnnc1)c1ccc(Cl)s1 [II.22] | at least 75% | 
O=C(Nc1ccnnc1)c1cccs1 [II.23] | at least 75% | mortality (Aphis gossypii): at least 75%
COc1ccsc1C(=O)N(C)c1ccnnc1 [II.14] | at least 75% | 
CC(C)Cn1cccc1C(=O)Nc1ccnnc1 [II.34] | at least 75% | 
COCCn1c(C)ccc1C(=O)Nc1ccnnc1 [II.36] | at least 75% | mortality (Myzus persicae): at least 75%
Cc1c(C(=O)N(C)c2ccnnc2)cc(Cl)n1CC(F)(F)F [I.35] |  | mortality (Bemisia Argentifolii): at least 75%
CN(C(=O)c1ccsc1)c1ccnnc1 [I.3] | at least 75% | 
Cc1ccoc1C(=O)Nc1ccnnc1 [II.30] | at least 75% | mortality (Aphis gossypii): at least 75%
Cc1ccsc1C(=O)Nc1ccnnc1 [II.4] | at least 75% | 
CN(C(=O)c1cccn1C)c1ccnnc1 [II.9] | at least 75% | 
Cc1cc(C(=O)N(C)c2ccnnc2)c(C)o1 [I.12] | at least 75% | 

SMILES | mortality (Aphis craccivora) | further results
CN(C(=O)c1ccsc1Br)c1ccnnc1 [I.5] | at least 75% | mortality (Aphis gossypii): at least 75%
COCCn1c(C)ccc1C(=O)N(C)c1ccnnc1 [II.37] | at least 75% | mortality (Megoura Viciae): at least 75%
COCCn1cccc1C(=O)N(C)c1ccnnc1 [II.32] |  | mortality (Myzus persicae): at least 75%
Cc1ccc(C(=O)N(C)c2ccnnc2)s1 [II.13] | at least 75% | 
Cc1ccc(C(=O)Nc2ccnnc2)s1 [II.24] | at least 75% | 
Cc1cc(C(=O)Nc2ccnnc2)c(C(F)(F)F)o1 [I.24] | at least 75% | 
CC(C)Cn1ccc(C(=O)Nc2ccnnc2)c1 [I.40] |  | mortality (Myzus persicae): at least 75%
O=C(Nc1ccnnc1)c1ccc(Br)s1 [II.28] | at least 75% | 
COCCn1ccc(C(=O)N(C)c2ccnnc2)c1 [I.38] |  | mortality (Myzus persicae): at least 75%
COCCn1ccc(C(=O)Nc2ccnnc2)c1 [I.43] |  | mortality (Aphis gossypii): at least 75%; mortality (Myzus persicae): at least 75%
O=C(Nc1ccnnc1)c1ccoc1 [I.21] |  | mortality (Bemisia Argentifolii): at least 75%
Cc1ccc(C(=O)N(C)c2ccnnc2)n1CC1CC1 [II.35] |  | mortality (Myzus persicae): at least 75%
Cc1ccc(C(=O)Nc2ccnnc2)n1CC1CC1 [II.38] |  | mortality (Aphis gossypii): at least 75%
CN(C(=O)c1ccc(Br)s1)c1ccnnc1 [II.16] | at least 75% | 
CCOCn1ccc(C(=O)N(C)c2ccnnc2)c1C [I.42] | at least 75% | 
O=C(Nc1ccnnc1)c1ccsc1Br [I.16] | at least 75% | 
CN(C(=O)c1cccs1)c1ccnnc1 [II.12] | at least 75% | 
CN(C(=O)c1cc(Cl)sc1Cl)c1ccnnc1 [I.8] | at least 75% | 
Cc1c(C(=O)N(C)c2ccnnc2)ccn1CC(F)(F)F [I.34] |  | mortality (Bemisia Argentifolii): at least 75%
Cc1ccoc1C(=O)N(C)c1ccnnc1 [II.18] | at least 75% | 
O=C(Nc1ccnnc1)c1cc(Br)cs1 [II.26] | at least 75% | 
Cc1occc1C(=O)Nc1ccnnc1 [I.22] | at least 75% | mortality (Aphis gossypii): at least 75%
